{"source": "PubChem BioAssay AID1224830 (NIAID, 2016)", "assay": "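Host factors that control LPS-induced TNF expression in human macrophages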 (primary screen)", "system": "human THP-1 monocytic leukaemia cells, TNF dual-luciferase reporter clone, PMA-differentiated to macrophage-like cells", "reagent": "siRNA pool against human genes, 50 nM", "timing": "LPS for 4 h, given about 3 days after siRNA transfection", "conditions": "bacterial LPS (TLR4 ligand), 10 ng/ml", "measurement": "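TNF firefly reporter luminescence divided by renilla, normalised to the plate median, then turned into a robust z-score for each replicate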", "reading the numbers": "TNF reporter robust z-score: higher = stronger TNF reporter response to LPS", "active means": "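a well is active when its z-score exceeds 2.8 or falls below -1.5; control wells carry no call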", "note": "Shown is one part, drawn at random, of about 18,000 reagents tested. Of all reagents, about 2,900 (16%) got an active call. 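Calls are made per well; low scores hint the gene aids the LPS response, high scores that it dampens it.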 Reagents against one gene are numbered here. Repeated entries: four replicate wells of each siRNA pool. No sequences are given here."}
The opening 6 entries, ahead of the listing:
{"gene knocked down": "PDXP", "reagent no.": 1, "TNF reporter robust z-score": 0.99, "call": "inactive"}
{"gene knocked down": "PDXP", "reagent no.": 1, "TNF reporter robust z-score": 0.62, "call": "inactive"}
{"gene knocked down": "PDXP", "reagent no.": 1, "TNF reporter robust z-score": 1.3, "call": "inactive"}
{"gene knocked down": "PDXP", "reagent no.": 1, "TNF reporter robust z-score": 1.97, "call": "inactive"}
{"gene knocked down": "ZNF213", "reagent no.": 1, "TNF reporter robust z-score": -0.12, "call": "inactive"}
{"gene knocked down": "ZNF213", "reagent no.": 1, "TNF reporter robust z-score": -0.08, "call": "inactive"}

Results, repeating the preview:
{"gene knocked down": "PDXP", "reagent no.": 1, "TNF reporter robust z-score": 0.99, "call": "inactive"}
{"gene knocked down": "PDXP", "reagent no.": 1, "TNF reporter robust z-score": 0.62, "call": "inactive"}
{"gene knocked down": "PDXP", "reagent no.": 1, "TNF reporter robust z-score": 1.3, "call": "inactive"}
{"gene knocked down": "PDXP", "reagent no.": 1, "TNF reporter robust z-score": 1.97, "call": "inactive"}
{"gene knocked down": "ZNF213", "reagent no.": 1, "TNF reporter robust z-score": -0.12, "call": "inactive"}
{"gene knocked down": "ZNF213", "reagent no.": 1, "TNF reporter robust z-score": -0.08, "call": "inactive"}
{"gene knocked down": "ZNF213", "reagent no.": 1, "TNF reporter robust z-score": 0.01, "call": "inactive"}
{"gene knocked down": "ZNF213", "reagent no.": 1, "TNF reporter robust z-score": 0.2, "call": "inactive"}
{"gene knocked down": "TMPRSS11A", "reagent no.": 1, "TNF reporter robust z-score": -0.32, "call": "inactive"}
{"gene knocked down": "TMPRSS11A", "reagent no.": 1, "TNF reporter robust z-score": -0.64, "call": "inactive"}
{"gene knocked down": "TMPRSS11A", "reagent no.": 1, "TNF reporter robust z-score": -0.47, "call": "inactive"}
{"gene knocked down": "TMPRSS11A", "reagent no.": 1, "TNF reporter robust z-score": 2.08, "call": "inactive"}
{"gene knocked down": "MIR99AHG", "reagent no.": 1, "TNF reporter robust z-score": -0.72, "call": "inactive"}
{"gene knocked down": "MIR99AHG", "reagent no.": 1, "TNF reporter robust z-score": -0.68, "call": "inactive"}
{"gene knocked down": "MIR99AHG", "reagent no.": 1, "TNF reporter robust z-score": -0.84, "call": "inactive"}
{"gene knocked down": "MIR99AHG", "reagent no.": 1, "TNF reporter robust z-score": 0.07, "call": "inactive"}
{"gene knocked down": "LGI3", "reagent no.": 1, "TNF reporter robust z-score": 0.63, "call": "inactive"}
{"gene knocked down": "LGI3", "reagent no.": 1, "TNF reporter robust z-score": 1.67, "call": "inactive"}
{"gene knocked down": "LGI3", "reagent no.": 1, "TNF reporter robust z-score": 1.38, "call": "inactive"}
{"gene knocked down": "LGI3", "reagent no.": 1, "TNF reporter robust z-score": 1.66, "call": "inactive"}
{"gene knocked down": "DDT", "reagent no.": 1, "TNF reporter robust z-score": -0.25, "call": "inactive"}
{"gene knocked down": "DDT", "reagent no.": 1, "TNF reporter robust z-score": 0.83, "call": "inactive"}
{"gene knocked down": "DDT", "reagent no.": 1, "TNF reporter robust z-score": 1.03, "call": "inactive"}
{"gene knocked down": "DDT", "reagent no.": 1, "TNF reporter robust z-score": 0.02, "call": "inactive"}
{"gene knocked down": "OR1I1", "reagent no.": 1, "TNF reporter robust z-score": 2.42, "call": "inactive"}
{"gene knocked down": "OR1I1", "reagent no.": 1, "TNF reporter robust z-score": 1.68, "call": "inactive"}
{"gene knocked down": "OR1I1", "reagent no.": 1, "TNF reporter robust z-score": 0.02, "call": "inactive"}
{"gene knocked down": "OR1I1", "reagent no.": 1, "TNF reporter robust z-score": 0, "call": "inactive"}
{"gene knocked down": "OR51T1", "reagent no.": 1, "TNF reporter robust z-score": -0.42, "call": "inactive"}
{"gene knocked down": "OR51T1", "reagent no.": 1, "TNF reporter robust z-score": -0.17, "call": "inactive"}
{"gene knocked down": "OR51T1", "reagent no.": 1, "TNF reporter robust z-score": -1.04, "call": "inactive"}
{"gene knocked down": "OR51T1", "reagent no.": 1, "TNF reporter robust z-score": -0.18, "call": "inactive"}
{"gene knocked down": "TTC9B", "reagent no.": 1, "TNF reporter robust z-score": 0.15, "call": "inactive"}
{"gene knocked down": "TTC9B", "reagent no.": 1, "TNF reporter robust z-score": -0.33, "call": "inactive"}
{"gene knocked down": "TTC9B", "reagent no.": 1, "TNF reporter robust z-score": -0.14, "call": "inactive"}
{"gene knocked down": "TTC9B", "reagent no.": 1, "TNF reporter robust z-score": 0.27, "call": "inactive"}
{"gene knocked down": "FIBIN", "reagent no.": 1, "TNF reporter robust z-score": -0.15, "call": "inactive"}
{"gene knocked down": "FIBIN", "reagent no.": 1, "TNF reporter robust z-score": -0.82, "call": "inactive"}
{"gene knocked down": "FIBIN", "reagent no.": 1, "TNF reporter robust z-score": 0.5, "call": "inactive"}
{"gene knocked down": "FIBIN", "reagent no.": 1, "TNF reporter robust z-score": 1.2, "call": "inactive"}
{"gene knocked down": "ADAM28", "reagent no.": 1, "TNF reporter robust z-score": -0.33, "call": "inactive"}
{"gene knocked down": "ADAM28", "reagent no.": 1, "TNF reporter robust z-score": 0.6, "call": "inactive"}
{"gene knocked down": "ADAM28", "reagent no.": 1, "TNF reporter robust z-score": -0.75, "call": "inactive"}
{"gene knocked down": "ADAM28", "reagent no.": 1, "TNF reporter robust z-score": -0.73, "call": "inactive"}
{"gene knocked down": "TIAM1", "reagent no.": 1, "TNF reporter robust z-score": -0.5, "call": "inactive"}
{"gene knocked down": "TIAM1", "reagent no.": 1, "TNF reporter robust z-score": 0.89, "call": "inactive"}
{"gene knocked down": "TIAM1", "reagent no.": 1, "TNF reporter robust z-score": 0.51, "call": "inactive"}
{"gene knocked down": "TIAM1", "reagent no.": 1, "TNF reporter robust z-score": 1.43, "call": "inactive"}
{"gene knocked down": "RPUSD4", "reagent no.": 1, "TNF reporter robust z-score": -0.72, "call": "inactive"}
{"gene knocked down": "RPUSD4", "reagent no.": 1, "TNF reporter robust z-score": -1.04, "call": "inactive"}
{"gene knocked down": "RPUSD4", "reagent no.": 1, "TNF reporter robust z-score": -0.83, "call": "inactive"}
{"gene knocked down": "RPUSD4", "reagent no.": 1, "TNF reporter robust z-score": -0.95, "call": "inactive"}
{"gene knocked down": "FARP2", "reagent no.": 1, "TNF reporter robust z-score": 1.04, "call": "inactive"}
{"gene knocked down": "FARP2", "reagent no.": 1, "TNF reporter robust z-score": 0.88, "call": "inactive"}
{"gene knocked down": "FARP2", "reagent no.": 1, "TNF reporter robust z-score": 0.43, "call": "inactive"}
{"gene knocked down": "FARP2", "reagent no.": 1, "TNF reporter robust z-score": 0.27, "call": "inactive"}
{"gene knocked down": "ELMOD1", "reagent no.": 1, "TNF reporter robust z-score": -1, "call": "inactive"}
{"gene knocked down": "ELMOD1", "reagent no.": 1, "TNF reporter robust z-score": -1.33, "call": "inactive"}
{"gene knocked down": "ELMOD1", "reagent no.": 1, "TNF reporter robust z-score": -1.28, "call": "inactive"}
{"gene knocked down": "ELMOD1", "reagent no.": 1, "TNF reporter robust z-score": -1.03, "call": "inactive"}
{"gene knocked down": "ELMOD1", "reagent no.": 2, "TNF reporter robust z-score": -0.94, "call": "inactive"}
{"gene knocked down": "ELMOD1", "reagent no.": 2, "TNF reporter robust z-score": -0.56, "call": "inactive"}
{"gene knocked down": "ELMOD1", "reagent no.": 2, "TNF reporter robust z-score": -0.55, "call": "inactive"}
{"gene knocked down": "ELMOD1", "reagent no.": 2, "TNF reporter robust z-score": -0.02, "call": "inactive"}
